Laboratory results: paper PMC9039659
No constants are given. Whether binding was seen depends on the method and setting. In cells and extracts the contact can be indirect. Some binding calls cover weakened binding; strength is not graded here.

Protein sequences, listed by entry. Tags and fused reporters are not part of them.
UniProt P35222: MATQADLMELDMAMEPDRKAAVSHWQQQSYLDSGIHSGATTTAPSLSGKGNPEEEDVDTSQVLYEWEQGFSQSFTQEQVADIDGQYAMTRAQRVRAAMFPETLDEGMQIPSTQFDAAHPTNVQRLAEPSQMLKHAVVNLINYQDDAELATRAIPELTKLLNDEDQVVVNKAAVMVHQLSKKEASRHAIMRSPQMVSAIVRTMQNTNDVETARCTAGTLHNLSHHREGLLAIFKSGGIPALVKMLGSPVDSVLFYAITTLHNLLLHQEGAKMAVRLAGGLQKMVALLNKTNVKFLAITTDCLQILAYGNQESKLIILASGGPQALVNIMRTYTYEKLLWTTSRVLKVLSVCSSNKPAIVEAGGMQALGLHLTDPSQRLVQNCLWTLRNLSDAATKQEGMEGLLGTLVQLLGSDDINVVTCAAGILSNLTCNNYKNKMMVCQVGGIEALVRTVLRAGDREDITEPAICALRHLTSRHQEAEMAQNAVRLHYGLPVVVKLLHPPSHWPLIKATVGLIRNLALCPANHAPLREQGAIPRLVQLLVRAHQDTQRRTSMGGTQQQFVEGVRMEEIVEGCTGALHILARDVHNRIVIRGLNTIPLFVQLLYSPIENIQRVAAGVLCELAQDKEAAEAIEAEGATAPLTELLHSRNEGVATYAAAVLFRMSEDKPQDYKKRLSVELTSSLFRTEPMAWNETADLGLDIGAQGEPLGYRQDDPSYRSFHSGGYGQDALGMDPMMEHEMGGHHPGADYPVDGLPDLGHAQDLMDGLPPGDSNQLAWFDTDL
UniProt P49841: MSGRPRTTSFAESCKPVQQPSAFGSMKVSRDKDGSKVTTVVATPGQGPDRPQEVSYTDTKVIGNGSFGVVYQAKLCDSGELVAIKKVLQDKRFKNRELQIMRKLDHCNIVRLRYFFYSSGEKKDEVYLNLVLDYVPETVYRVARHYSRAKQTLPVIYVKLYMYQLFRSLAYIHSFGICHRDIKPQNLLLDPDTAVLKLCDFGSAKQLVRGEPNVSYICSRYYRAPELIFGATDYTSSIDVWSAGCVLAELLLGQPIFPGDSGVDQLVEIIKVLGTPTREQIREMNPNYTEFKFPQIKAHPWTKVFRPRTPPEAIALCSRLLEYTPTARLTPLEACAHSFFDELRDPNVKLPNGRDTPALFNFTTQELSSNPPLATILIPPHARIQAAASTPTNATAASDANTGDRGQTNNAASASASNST
UniProt O95863: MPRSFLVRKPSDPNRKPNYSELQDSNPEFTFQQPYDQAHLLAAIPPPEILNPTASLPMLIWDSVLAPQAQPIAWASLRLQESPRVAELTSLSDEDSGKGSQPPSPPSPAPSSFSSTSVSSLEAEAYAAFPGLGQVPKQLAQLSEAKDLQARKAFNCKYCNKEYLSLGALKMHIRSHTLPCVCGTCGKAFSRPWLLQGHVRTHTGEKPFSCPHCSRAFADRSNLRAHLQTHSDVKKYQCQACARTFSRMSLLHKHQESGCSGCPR

How the values were obtained:
[1] = target: β-catenin (human (endogenous in HUVEC)) (UniProt P35222); assay: co-IP; endogenous proteins in NP-40 lysate of HUVECs, with or without WNT10A treatment of the cells; immunoprecipitated with antibody against β-catenin, protein A/G agarose beads, 4°C; immunoblot; IgG as negative control
[2] = target: glycogen synthase kinase 3β (human (endogenous in HUVEC)) (UniProt P49841); assay: co-IP; endogenous proteins in NP-40 lysate of HUVECs, with or without WNT10A treatment of the cells; immunoprecipitated with antibody against GSK3β, protein A/G agarose beads, 4°C; immunoblot; IgG as negative control

## snail (from UniProt O95863 1-264)
[1]
  binding: binds
[2]
  binding: binds
